These are yes or no findings as the source states them, for the method shown. Binding seen in cells or lysates may run through a third protein. Here binding means that the protein was enriched with, or labelled near, the bait; the list need not be complete.

The test deals with T1, Programmed cell death 4 (PDCD4) protein, endogenous (human (endogenous in U343)) (UniProt Q53EL6).
T1 sequence: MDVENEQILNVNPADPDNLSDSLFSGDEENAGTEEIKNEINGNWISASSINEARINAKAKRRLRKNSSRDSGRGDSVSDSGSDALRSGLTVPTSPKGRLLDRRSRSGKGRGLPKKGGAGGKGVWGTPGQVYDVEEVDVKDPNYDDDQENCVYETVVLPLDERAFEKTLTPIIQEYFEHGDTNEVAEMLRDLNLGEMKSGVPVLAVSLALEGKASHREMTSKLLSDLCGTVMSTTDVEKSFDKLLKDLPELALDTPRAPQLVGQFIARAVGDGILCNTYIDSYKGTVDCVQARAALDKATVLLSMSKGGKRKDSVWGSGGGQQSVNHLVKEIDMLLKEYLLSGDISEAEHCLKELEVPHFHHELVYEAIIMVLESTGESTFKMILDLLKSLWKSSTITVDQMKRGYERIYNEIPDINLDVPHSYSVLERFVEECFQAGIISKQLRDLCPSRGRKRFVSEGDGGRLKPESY
Put plainly: affinity purification with mass spectrometry; endogenous PDCD4 precipitated with PDCD4 antibody on protein G Dynabeads from U343 lysate (RIPA), without crosslinking, basal conditions; FBS-coated beads as control; TMT labelling, LC-MS/MS.

With “eIF4G, endogenous (human (endogenous in U343))”, the binding result is on record as “binds”. For “poly(A)-binding protein (PABP), endogenous (human (endogenous in U343))”, the binding result is recorded as “binds”.

Values taken from PMC13163806.
